Results are given in words; binding and its absence hold for the method and conditions named. Some entries that bind do so weakly or less than the wild type.
Columns and labels:
[1] = biological target: C-SLPI (C-terminal cleavage product of mature human SLPI, made by incubating recombinant SLPI with neutrophil elastase) (human) (UniProt P03973); experiment: sandwich ELISA, hybridoma supernatant as capture
[2] = biological target: C-SLPI (C-terminal cleavage product of mature human SLPI, made by incubating recombinant SLPI with neutrophil elastase) (human) (UniProt P03973); experiment: sandwich ELISA on CF sputum samples, C5.5 supernatant as capture
[3] = biological target: C-SLPI (C-terminal cleavage product of mature human SLPI, made by incubating recombinant SLPI with neutrophil elastase) (human) (UniProt P03973); experiment: hybridoma clone screening

Chains of the proteins cited; added tags and fusions are not shown. Lines headed by an entry give the natural chain unless they say otherwise; changes in a name come on top.
UniProt P03973: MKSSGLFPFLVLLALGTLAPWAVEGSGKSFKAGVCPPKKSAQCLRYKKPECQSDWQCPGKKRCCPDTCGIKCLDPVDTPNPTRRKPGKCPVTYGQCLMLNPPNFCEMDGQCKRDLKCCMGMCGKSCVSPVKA

Measured: binding

B1: C5.5 monoclonal antibody (supernatant of hybridoma clone C5.5) (antibody, V domains shown)
VH: EVQLVESGGGLVHPQGSLKLSCTASGFTFNTYDMNWVRQAPGKGLEWVARIRTKSYYYATYYADSVKDRFTISRDDSQTMLYLQLNNLKTEDTALYYCVRRSGNYGAMDYWGQGTSVTVSS
VL: QIVLTQSPAIMSASLGERVTMTCTASSSVSSSYLHWYQQKPGSSPKLWIYSTSNLASGVPARFSGSGSGTSYSLTISSMEAEDAATYYCHQYHRSPRTFGGGTKLEIK
notes: Used as cell-free hybridoma supernatant coated on the plate (capture antibody); also called C5.5 supernatant
binds: all assays above
